Measured values reported in PubChem BioAssay AID2685 (National Center for Advancing Translational Sciences (NCATS), 2010).
This is one part of the list. Further columns of the screen follow, without active or inactive calls. Most of these compounds were active or inconclusive in the main read-out, so they are no random draw. The note in brackets gives the kind of curve behind each potency; many fits are weak.

Assay: qHTS Assay for Lipid Storage Modulators in Drosophila S3 Cells;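 for cell number change: cells counted by Cell Tracker Red CMTPX staining in the red channel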
Details: BODIPY lipid droplet fluorescence, 18-24 h; for cell number change: measured here: cell count max response, cells fed with added oleic acid
In short: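 Drosophila S3 cells loaded with oleic acid (400 uM, as added) and compounds at several concentrations; lipid droplets imaged by 488-nm laser-scanning cytometry, 500–530 nm intensity and object ratio to cell channel. Percent activity normalized to 20 uM Triacsin C.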

[1] = measured here: lipid fluorescence (Fed channel) AC50, cells fed with added oleic acid
[2] = measured here: cell number channel AC50, cells fed with added oleic acid

## CN1/C(=C\C(=O)COC(=O)CN2C(=O)C3CC=CCC3C2=O)C(C)(C)c2ccccc21 (stereo not drawn)
  cell number change: -29.5%
[1]
  AC50: 29.1 µM [falling, single point]

## COC(=O)C1=C(C)NC(C)=C(C(=O)OCCN(C)Cc2ccccc2)C1c1cccc([N+](=O)[O-])c1 (stereo not drawn)
  cell number change: 1.01%
[1]
  AC50: 5.8 µM [rising, partial curve]

## Cc1ccc(Nc2nc(Cl)c(C=O)s2)cc1
  cell number change: -1.85%
[1]
  AC50: 2.59 µM [rising, partial curve]

## COc1ccc(N2CCN(C(=O)c3ccc(Cl)c(S(=O)(=O)N4CCCC4)c3)CC2)cc1
[1]
  AC50: 4.61 µM [rising, partial curve]

## N#CCC(=O)N/N=C/c1cn(Cc2ccc3ccccc3c2)c2ccccc12
  cell number change: -43.3%
[2]
  AC50: 18.4 µM [falling, single point]
[1]
  AC50: 20.6 µM [falling, single point]

## CCOC(=O)C1=C(C)Nc2ccccc2N=C1NC(=O)c1cc(C)on1
  cell number change: 10.6%
[1]
  AC50: 9.2 µM [rising, partial curve, poor fit]

## COc1ccccc1C(OC(=O)c1ccco1)C(=O)NCc1ccc(F)cc1 (stereo not drawn)
  cell number change: 37%

## COc1ccc(C(=O)NC2CCN(CC(=O)Nc3cccc(OC)c3)CC2)cc1
  cell number change: 20.8%
[1]
  AC50: 29.1 µM [rising, single point]

## CC1CCCN(c2cc3c(cc2[N+](=O)[O-])C(=O)N(c2ccccc2)C3=O)C1 (stereo not drawn)
  cell number change: -41.9%
[2]
  AC50: 36.6 µM [falling, partial curve, poor fit]

## O=C(NCc1nc2ccccc2[nH]1)c1cccc(S(=O)(=O)N2CCOCC2)c1
[1]
  AC50: 0.366 µM [rising, single point]

## CN(CC(=O)Nc1cc(S(=O)(=O)N2CCOCC2)ccc1Cl)C1CCS(=O)(=O)C1 (stereo not drawn)
  cell number change: -7%
[2]
  AC50: 0.00461 µM [rising, full curve, poor fit]

## Cc1cccnc1NC(=S)NC(=O)/C=C/c1ccco1
  cell number change: 40.8%
[2]
  AC50: 5.8 µM [rising, partial curve]

## CCNc1nc(NC(C)(C)C)nc(SCC(N)=O)n1
  cell number change: -26%
[2]
  AC50: 0.794 µM [falling, full curve, poor fit]
[1]
  AC50: 5.01 µM [falling, full curve]

## CCOc1ccc(NC(=O)c2cccc3c2C(=O)N(CC2CCCO2)C3)cc1 (stereo not drawn)
  cell number change: -7.2%
[1]
  AC50: 0.651 µM [rising, full curve]

## COc1ccc(S(=O)(=O)N2CCC(n3cnc4ccccc43)CC2)cc1
  cell number change: -9.4%

## Cc1ccc(C(=O)O/N=C(\N)Cc2cccs2)cc1[N+](=O)[O-]
  cell number change: 41.1%
[2]
  AC50: 5.8 µM [rising, partial curve]

## CCOc1ccc(S(=O)(=O)NCc2cccnc2)cc1
  cell number change: 53.2%
[2]
  AC50: 29.1 µM [rising, partial curve, poor fit]

## C/C(=N\NC(=O)c1cc([N+](=O)[O-])cc([N+](=O)[O-])c1)c1ccco1
  cell number change: -1.27%
[1]
  AC50: 29.1 µM [falling, single point]

## CCn1c(CCc2ccccc2)nnc1SCC(N)=O
[1]
  AC50: 6.51 µM [rising, single point]

## CCOC(=O)/C(C#N)=C/Nc1ccsc1C(C)=O
  cell number change: 11.7%
[1]
  AC50: 0.00461 µM [rising, full curve, poor fit]

## CCCc1[nH]nc2c1C(c1ccc(O)cc1OCC)C(C#N)=C(N)O2 (stereo not drawn)
  cell number change: -31.8%
[2]
  AC50: 9.2 µM [falling, partial curve, poor fit]
[1]
  AC50: 18.4 µM [falling, partial curve]

## O=C(COC(=O)c1cc[n+]([O-])cc1)NCCc1ccc(Cl)cc1Cl
  cell number change: -2.2%
[1]
  AC50: 0.103 µM [falling, full curve, poor fit]

## CC(=O)N/C(=C\c1ccccc1)C(=O)OC(C)C(=O)c1ccccc1 (stereo not drawn)
  cell number change: 38.4%
[2]
  AC50: 18.4 µM [rising, single point]

## O=C(O)COc1ccccc1/C=C1\SC(=S)N(/N=C/c2ccccc2O)C1=O
  cell number change: -8.12%

## N/C(=N\N=C\c1cccc(O)c1)c1nonc1N
  cell number change: -38.6%
[2]
  AC50: 10.3 µM [falling, partial curve]

## COc1cc(N2CCOCC2)ccc1C=C(C#N)C#N
  cell number change: -2.17%
[1]
  AC50: 16.4 µM [falling, single point]

## CCC(=O)N1CCc2cc(S(=O)(=O)NC(Cc3ccccc3)C(=O)Nc3nccs3)ccc21 (stereo not drawn)
  cell number change: 32.6%
[2]
  AC50: 4.11 µM [rising, partial curve, poor fit]
[1]
  AC50: 0.184 µM [rising, full curve, poor fit]

## Cc1cc(C)c2nc(N3CCN(C(=O)c4cccs4)CC3)sc2c1
  cell number change: 46.6%
[2]
  AC50: 14.6 µM [rising, single point]

## Cc1cccc2c(=O)cc(C)n(CC(N)=O)c12
[1]
  AC50: 0.13 µM [falling, full curve, poor fit]

## CC1CC(C)CN(S(=O)(=O)N2CCCC(C(=O)NC3CCCCC3)C2)C1 (stereo not drawn)
[1]
  AC50: 2.91 µM [rising, single point]

## Fc1ccc2c(c1)C(c1ccc(N3CCOCC3)cc1)=NNC(c1cccs1)=N2
  cell number change: 35.6%
[2]
  AC50: 3.66 µM [rising, partial curve, poor fit]
[1]
  AC50: 3.26 µM [rising, full curve]

## Cc1cccc(Nc2ncnc(N)c2[N+](=O)[O-])n1
  cell number change: 47.1%
[2]
  AC50: 23.1 µM [rising, single point]
[1]
  AC50: 18.4 µM [rising, partial curve]

## O=C(Nc1cccc2nsnc12)c1ccc(-c2cccc(Cl)c2)o1
  cell number change: 16.2%

## Cc1cc(SCC(=O)c2cc(C)n(C)c2C)nc2ccccc12
  cell number change: -2.83%

## COc1ccc(C(CC(=O)O)NC(=O)Cc2ccccc2)cc1 (stereo not drawn)
  cell number change: -12.9%
[1]
  AC50: 29.1 µM [falling, single point]

## NC(=O)NC(CC(=O)NNC(=O)c1ccccn1)c1ccccc1Cl (stereo not drawn)
  cell number change: -12%

## CN(C)CCCNS(=O)(=O)c1ccc(NC2CCCCCC2)c([N+](=O)[O-])c1
  cell number change: 8.97%
[1]
  AC50: 6.51 µM [rising, single point]

## COc1ccc(NC(=O)CN(C)S(=O)(=O)c2ccc3[nH]c(=O)oc3c2)cc1
  cell number change: 2.97%
[1]
  AC50: 29.1 µM [rising, single point]

## Cc1ccc(NC(=S)NC(=O)C2CCCC2)cc1C
  cell number change: 2.9%
[1]
  AC50: 29.1 µM [rising, partial curve]
